PubChem BioAssay AID504764 – Drosophila RNAi Screening Center – 2011
The screen tested about 22,000 reagents; below is an unselected part of those with a known target gene and a result. Over the whole deposit, 403 (1.9%) were called active. 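Unnormalised raw counts per well; ratio z-scores behind the hit calls and whether each hit raises or lowers signal are not deposited.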 A plus sign joins genes that one reagent is predicted to hit. Not given: the amount of reagent.

- Purpose: 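Genes whose knock-down alters Notch-dependent transcription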 (primary screen)
- Cell system: Drosophila Kc167 cells
- Reagents: long dsRNA against Drosophila genes
- Duration: about 5 days (4 days dsRNA, then 24 h after transfection)
- Challenge: transfection of constitutively active membrane-tethered Notch lacking the extracellular domain, read 24 h later
- Detection: 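Firefly luciferase from an E(spl)m3 reporter with active Notch, plus control-promoter and uninduced reporter wells for normalisation; unnormalised counts, duplicate wells a and b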
- Direction: induced reporter light, run 1, well a and induced reporter light, run 1, well b: higher = more light from the Notch target reporter with active Notch; control promoter light, run 1, well a and control promoter light, run 1, well b: higher = more light from the viral control promoter (cell number, transfection, viability); uninduced reporter light, run 1, well a: higher = more light from the Notch target reporter without active Notch
- Rule for the call: 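Hit if the duplicate-averaged log2 ratio of induced to control-promoter light gives a plate-wise z beyond ±2, or induced to uninduced beyond ±1.8; weak-control or discordant-duplicate wells dropped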
- Calls: active = modifier hit (raised or lowered Notch signal); inactive = not a hit

no.	gene	DRSC id	induced reporter light, run 1, well a	induced reporter light, run 1, well b	control promoter light, run 1, well a	control promoter light, run 1, well b	uninduced reporter light, run 1, well a	outcome
1	PH4alphaSG1 (prolyl-4-hydroxylase-alpha SG1)	DRSC15080	1.61e5	1.42e5	1.88e5	1.53e5	11645	inactive
2	Ref1 (RNA and export factor binding protein 1)	DRSC12497	1.63e5	1.29e5	83445	83265	8955	inactive
3	GLS (Glutaminase)	DRSC07261	74145	90590	68890	63520	6382	inactive
4	x16 (x16 splicing factor)	DRSC00960	82000	76575	1.01e5	1.22e5	8005	inactive
5	x16 (x16 splicing factor)	DRSC03638	1.64e5	1.89e5	2.01e5	1.93e5	18085	inactive
6	MESR3 (Misexpression suppressor of ras 3)	DRSC02463	31475	30435	40085	54605	2860	inactive
7	RpS5a (Ribosomal protein S5a)	DRSC20282	91555	92660	69755	30050	5445	inactive
8	Rrp40 (Ribosomal RNA processing 40)	DRSC00074	94005	89630	1.57e5	1.53e5	10185	inactive
9	CG11970	DRSC14157	1.34e5	1.16e5	1.35e5	99895	8820	inactive
10	RpS4 (Ribosomal protein S4)	DRSC11272	12688	12238	15490	17040	740	inactive
11	CG6788 + CR32496	DRSC22043						inactive
12	lncRNA:Hsromega (Heat shock RNA omega)	DRSC22875						active
13	CG13021	DRSC17893	1.33e5	1.26e5	2.06e5	2.50e5	10805	inactive

Copied from the entries so far (5 entries):
no.	gene	DRSC id	induced reporter light, run 1, well a	induced reporter light, run 1, well b	control promoter light, run 1, well a	control promoter light, run 1, well b	uninduced reporter light, run 1, well a	outcome
9	CG11970	DRSC14157	1.34e5	1.16e5	1.35e5	99895	8820	inactive
10	RpS4 (Ribosomal protein S4)	DRSC11272	12688	12238	15490	17040	740	inactive
11	CG6788 + CR32496	DRSC22043						inactive
12	lncRNA:Hsromega (Heat shock RNA omega)	DRSC22875						active
13	CG13021	DRSC17893	1.33e5	1.26e5	2.06e5	2.50e5	10805	inactive

The results go on:
no.	gene	DRSC id	induced reporter light, run 1, well a	induced reporter light, run 1, well b	control promoter light, run 1, well a	control promoter light, run 1, well b	uninduced reporter light, run 1, well a	outcome
14	CG10477	DRSC09732	2.64e5	2.30e5	2.58e5	2.69e5	10900	inactive
15	Crys (Crystallin)	DRSC03294	1.66e5	1.91e5	1.39e5	1.64e5	13485	inactive
16	cindr (CIN85 and CD2AP related)	DRSC14126	1.40e5	1.69e5	1.95e5	1.91e5	11525	inactive
17	cindr (CIN85 and CD2AP related)	DRSC14298	37230	32195	53885	51970	5560	inactive
18	Ing5 (Inhibitor of growth family member 5)	DRSC03188	1.80e5	1.84e5	1.48e5	1.72e5	19120	active
19	JMJD4 (Jumonji domain containing 4)	DRSC03025	2.19e5	2.87e5	2.31e5	2.00e5	16625	inactive
20	Atg8a (Autophagy-related 8a)	DRSC18024	1.02e5	94495	2.19e5	2.35e5	8720	inactive
21	Polr3D (RNA polymerase III subunit D)	DRSC10485	85915	89265	59275	58390	7260	inactive
22	Upf3	DRSC04092	1.30e5	1.42e5	1.19e5	1.41e5	8345	inactive
23	h-cup + Rbp	DRSC14990	2.54e5	2.32e5	2.06e5	2.14e5	18650	inactive
24	Ttd14 (TRPL translocation defect 14)	DRSC06632	83250	82845	1.56e5	1.80e5	7005	inactive
25	Ttd14 (TRPL translocation defect 14)	DRSC06942	1.23e5	1.19e5	1.21e5	1.01e5	8985	inactive
26	Tmem43 (Transmembrane protein 43)	DRSC10964	3.19e5	3.33e5	5.36e5	2.88e5	15540	inactive
27	Hrb87F (Heterogeneous nuclear ribonucleoprotein at 87F)	DRSC16708	55385	51550	43545	37410	5865	inactive
28	CG13423	DRSC06386	1.49e5	1.38e5	1.28e5	1.25e5	7610	inactive
29	dpr7 (defective proboscis extension response 7)	DRSC17109	64020	87600	1.05e5	85685	6295	inactive
30	hop (hopscotch)	DRSC20340	1.05e5	92485	1.42e5	1.50e5	6845	inactive
31	CG2200	DRSC19840	1.18e5	1.33e5	2.52e5	2.72e5	8670	inactive
32	CG17145	DRSC10247	1.12e5	99245	87745	96070	7510	inactive
33	CG5397	DRSC00683	2.02e5	2.18e5	2.41e5	2.52e5	18400	inactive
34	CG42673	DRSC08989	1.64e5	1.51e5	1.49e5	1.51e5	12265	inactive
35	CG42673	DRSC08991	3990	3345	3770	3530	3645	inactive
36	CG42673	DRSC10177	1.23e5	1.16e5	2.21e5	1.97e5	6270	inactive
37	CG42673	DRSC10264	1.42e5	1.49e5	2.08e5	1.59e5	8900	inactive
38	CG42673	DRSC10353	2.69e5	1.87e5	2.93e5	2.45e5	11705	inactive
39	CG42673	DRSC10354	1.75e5	1.43e5	2.02e5	2.12e5	8745	inactive
